Results on 1 compound are retold here after paper PMC5435539 (Journal of applied toxicology : JAT, 2017).

The test system of one assay is MCF-7 cells. The experiment in a line: Alamar Blue cell viability assay, 24 h. Format: cell-based. The following applies: Homo sapiens, MCF7, 24 h, read-out: IC50 MCF-7 (Alamar Blue). Background: The colour change of resazurin is a common sign of viable cells or microbes.
Assay [1] concerns MCF-10A breast epithelial cells. The experiment in a line: Cell viability assay. Type of assay: cell-based. The note with it: Homo sapiens, 24 h, read-out: IC50 MCF-10A.

Broadly, the IC50 is the midpoint of a concentration-inhibition curve.

For the compound `CC/C(=C(\c1ccccc1)c1ccc(OCCN(C)C)cc1)c1ccccc1` [Tamoxifen, reference compound], the concentration for half-maximal inhibition (IC50) with MCF-7 cells is 18 ± 2.21 µM; in assay [1], 38.9 ± 1.19 µM.
